A short description of series [1]: in vivo. The conditions noted are these: SCID, mouse, iv, 4 uCi, total radioactivity; for tissue uptake dose at 72 h: Avg % ID; for tissue uptake at 0.25 h: 15 min. On the procedure:
In vivo pharmacokinetic studies in human tumor bearing SCID mice. […] The xenograft models were produced by bilateral flank inoculation of 5×10^6 cells (PC-3 or MDA-MB-231 cells) per site. Four to six weeks post inoculation, palpable tumors were observed. At this point, the mice were injected with 4 μCi of the complex in […] of isotonic saline via the tail vein. The mice were euthanized and tissues and organs were excised from the animals at selected times post-injection (p.i.), including 15 minutes, 30 minutes, 1 hour, 4 hours, 24 hours, 48 hours, and 72 hours p.i. Subsequently, the tissues and organs were weighed and counted in a NaI well counter and the percent injected dose (% ID) and % ID/g of each organ or tissue calculated.
The mice were injected with 4 μCi of the complex in 100 μL of isotonic saline via the tail vein. The mice were euthanized by cervical dislocation. Tissues and organs were excised from the animals following at 1 hour, 4 hour, and 24 hours post-injection (p.i.). Subsequently, the tissues and organs were weighed and counted in a NaI well counter and the percent injected dose (% ID) and % ID/g of each organ or tissue calculated.

The chains behind the UniProt entries cited, without tags or fusion partners. Where a name states a change or a piece, a line headed by the entry shows the natural chain unless it says otherwise.
UniProt P30550: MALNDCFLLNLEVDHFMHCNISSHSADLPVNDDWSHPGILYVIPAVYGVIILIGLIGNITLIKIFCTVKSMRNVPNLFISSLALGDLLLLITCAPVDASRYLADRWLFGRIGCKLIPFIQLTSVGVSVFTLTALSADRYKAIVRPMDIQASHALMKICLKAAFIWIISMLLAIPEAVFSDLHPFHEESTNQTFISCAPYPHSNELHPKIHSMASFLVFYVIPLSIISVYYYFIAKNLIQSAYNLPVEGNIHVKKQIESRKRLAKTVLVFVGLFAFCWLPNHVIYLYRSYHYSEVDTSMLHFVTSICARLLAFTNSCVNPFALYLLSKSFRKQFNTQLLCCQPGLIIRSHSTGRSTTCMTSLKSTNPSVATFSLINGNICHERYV

Series [2] in a line: Biodistribution of radiometal-DOTA-BBN conjugates in CF1 normal mice.
A short description of series [3]: in vivo. The conditions noted are these: SCID, mouse, iv, 4 uCi, total radioactivity.
In series [4] the target is GRP receptor, human breast carcinoma T47D cells (Homo sapiens, UniProt P30550). The experiment in a line: biochemical.

The results in this text go back to patent US20060067886A1, “Gastrin receptor-avid peptide conjugates” (priority 1997, published 2006).

As to `CSCC[C@H](NC(=O)[C@H](CC(C)C)NC(=O)[C@H](Cc1cnc[nH]1)NC(=O)CNC(=O)[C@@H](NC(=O)[C@H](C)NC(=O)[C@H](Cc1c[nH]c2ccccc12)NC(=O)[C@H](CCC(N)=O)NC(=O)CCCCCCCNC(=O)CN1CCN(CC(=O)O)CCN(CC(=O)O)CCN(CC(=O)O)CC1)C(C)C)C(N)=O` [90Y-DOTA-8-Aoc-BBN[7-14]NH2, metal not drawn], the tissue uptake dose at 72 h in series [1] (Heart) was determined as 0.04 ± 0.04 %ID.
For `CSCC[C@H](NC(=O)[C@H](CC(C)C)NC(=O)[C@H](Cc1cnc[nH]1)NC(=O)CNC(=O)[C@@H](NC(=O)[C@H](C)NC(=O)[C@H](Cc1c[nH]c2ccccc12)NC(=O)[C@H](CCC(N)=O)NC(=O)CCCCCCCNC(=O)CN1CCN(CC(=O)O)CCN(CC(=O)O)CCN(CC(=O)O)CC1)C(C)C)C(N)=O` [149Pm-DOTA-8-Aoc-BBN[7-14]NH2] [listing 1 of 2 here], the “Avg % ID, Liver” value in series [2] (1 hour post-injection) turned out to be 0.35 ± 0.20 % ID.
On to `CSCC[C@H](NC(=O)[C@H](CC(C)C)NC(=O)[C@H](Cc1cnc[nH]1)NC(=O)CNC(=O)[C@@H](NC(=O)[C@H](C)NC(=O)[C@H](Cc1c[nH]c2ccccc12)NC(=O)[C@H](CCC(N)=O)NC(=O)CCCCCCCNC(=O)CN1CCN(CC(=O)O)CCN(CC(=O)O)CCN(CC(=O)O)CC1)C(C)C)C(N)=O` [111In-DOTA-8-Aoc-BBN[7-14]NH2, metal not drawn], for which the tissue uptake – broadly, the percentage of the injected dose found per gram of tissue – at 4 h in series [3] (heart) worked out at 0.03 ± 0.05 %ID/g; in series [3] (small intestine), 1.52 ± 0.19 %ID/g. Further, the tissue uptake at 24 h is 0.03 ± 0.05 %ID/g in series [3] (muscle) and 1.56 ± 0.45 %ID/g in series [1] (Avg % ID/gm, Tumor, 24 hrs). In series [3] (stomach), the tissue uptake at 1 h was 1.49 ± 0.68 %ID/g. Moreover, the IC50 (commonly the midpoint of a concentration-inhibition curve) in series [4] is 1.23 ± 0.25 nM. The tissue uptake dose at 72 h in series [1] (Tumor) came to 0.03 ± 0.01 %ID. Besides, the tissue uptake at 0.5 h in series [1] (Avg % ID/gm, Blood, 30 min) is 1.46 ± 0.44 %ID/g. The tissue uptake at 0.25 h is 7.82 ± 2.26 %ID/g in series [1] (Avg % ID/gm, S. Intestine) and 7.59 ± 2.11 %ID/g in series [1] (Avg % ID/gm, Tumor). In addition, in series [2] (CF-1, mouse, in vivo, iv, total radioactivity, Avg % ID, Heart, 1 hour, Blocking (excess BBN)), the tissue uptake dose at 1 h was 0.03 ± 0.01 %ID.
For the molecule `CSCC[C@H](NC(=O)[C@H](CC(C)C)NC(=O)[C@H](Cc1cnc[nH]1)NC(=O)CNC(=O)[C@@H](NC(=O)[C@H](C)NC(=O)[C@H](Cc1c[nH]c2ccccc12)NC(=O)[C@H](CCC(N)=O)NC(=O)CCCCCCCNC(=O)CN1CCN(CC(=O)O)CCN(CC(=O)O)CCN(CC(=O)O)CC1)C(C)C)C(N)=O` [149Pm-DOTA-8-Aoc-BBN[7-14]NH2] [listing 2 of 2 here], in series [2] (CF-1, mouse, in vivo, iv, total radioactivity, Avg % ID/gm, Spleen, 1 hour post-injection), the tissue uptake at 1 h amounted to 1.61 ± 0.36 %ID/g.
